PubChem BioAssay AID1159584 | Peter MacCallum Cancer Centre – 2016

Assay: 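Genes that CDH1-null MCF10A cells selectively depend on to survive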 (primary screen)
Cells: human MCF10A breast epithelial cells, parental and CDH1-null
Reagent: siRNA against human genes
Measured: 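Cell viability by CellTiter-Glo ATP luminescence, each line scaled to the mean of mock wells across plates, then CDH1-null over parental ratio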
Reading the numbers: CDH1-null / parental viability ratio: higher = CDH1-null cells survive relatively better than parental
The whole screen tested about 18,000 reagents; below is an unselected part. The numbers tell different reagents against one gene apart. Not all columns of the deposit are shown. Not stated in the record: the amount of reagent, the time to read-out.

CDH1-null / parental viability ratio, by gene knocked down and reagent
DNAI4 (dynein axonemal intermediate chain 4): #1 0.7
ZNF582 (zinc finger protein 582): #1 1.11
NCAPH2 (non-SMC condensin II complex subunit H2): #1 0.79
TRAPPC11 (trafficking protein particle complex subunit 11): #1 0.69
MTPN (myotrophin): #1 0.72
CD300LB (CD300 molecule like family member b): #1 1.07
HOXD11 (homeobox D11): #1 0.96
OR7G3 (olfactory receptor family 7 subfamily G member 3): #1 0.95
MTHFD2: #1 1.14
DCAF4L2 (DDB1 and CUL4 associated factor 4 like 2): #1 0.87
MDFIC (MyoD family inhibitor domain containing): #1 1.34
GRP (gastrin releasing peptide): #1 1.49
CA14 (carbonic anhydrase 14): #1 1.05
SYCE1 (synaptonemal complex central element protein 1): #1 0.9
SLC67A1: #1 0.67
NTN3 (netrin 3): #1 1.11
HOATZ (HOATZ cilia and flagella associated protein): #1 0.97
CHRNE (cholinergic receptor nicotinic epsilon subunit): #1 1.26
ZBTB6 (zinc finger and BTB domain containing 6): #1 1.12
ARHGAP27 (Rho GTPase activating protein 27): #1 1.01; #2 0.88
SUPT7L (SPT7 like, STAGA complex subunit gamma): #1 0.86
FUOM (fucose mutarotase): #1 0.88
G3BP2 (G3BP stress granule assembly factor 2): #1 1
SF1 (splicing factor 1): #1 1.12
FCGBP (Fc gamma binding protein): #1 0.8
ZNF503 (zinc finger protein 503): #1 0.9
NLRC3 (NLR family CARD domain containing 3): #1 1.01
NWD1 (NACHT and WD repeat domain containing 1): #1 0.89
PAQR4 (progestin and adipoQ receptor family member 4): #1 1.07
NELFA (negative elongation factor complex member A): #1 1
SPAG6 (sperm associated antigen 6): #1 0.9
TXLNG (taxilin gamma): #1 0.98
SLC28A2: #1 0.99

In a second layout: results already given
ZNF582 (zinc finger protein 582)
- CDH1-null / parental viability ratio: 1.11

NCAPH2 (non-SMC condensin II complex subunit H2)
- CDH1-null / parental viability ratio: 0.79

TRAPPC11 (trafficking protein particle complex subunit 11)
- CDH1-null / parental viability ratio: 0.69

MTPN (myotrophin)
- CDH1-null / parental viability ratio: 0.72

CD300LB (CD300 molecule like family member b)
- CDH1-null / parental viability ratio: 1.07

HOXD11 (homeobox D11)
- CDH1-null / parental viability ratio: 0.96

OR7G3 (olfactory receptor family 7 subfamily G member 3)
- CDH1-null / parental viability ratio: 0.95

MTHFD2
- CDH1-null / parental viability ratio: 1.14

Further results follow.
CDH1-null / parental viability ratio, by gene knocked down and reagent
IGFLR1 (IGF like family receptor 1): #1 1.39
CRYBG2 (crystallin beta-gamma domain containing 2): #1 0.97
CCDC30 (coiled-coil domain containing 30): #1 1.02
SPIN4 (spindlin family member 4): #1 1.11
MDM2 (MDM2 proto-oncogene): #1 0.99
KCTD1 (potassium channel tetramerization domain containing 1): #1 1.13
DCSTAMP (dendrocyte expressed seven transmembrane protein): #1 1.13
ZCWPW1 (zinc finger CW-type and PWWP domain containing 1): #1 0.65
CACNA1S (calcium voltage-gated channel subunit alpha1 S): #1 1.45
RAD51D (RAD51 paralog D): #1 1.08
CRBN (cereblon): #1 1.11
TBC1D10C (TBC1 domain family member 10C): #1 1.04
H4C8 (H4 clustered histone 8): #1 1.04
FZD10 (frizzled class receptor 10): #1 0.86
MED18 (mediator complex subunit 18): #1 0.9
PCDH18 (protocadherin 18): #1 0.86
DEFB123 (defensin beta 123): #1 0.8
LANCL1 (LanC like glutathione S-transferase 1): #1 0.77
SLC25A21: #1 1.08
OR51B2 (olfactory receptor family 51 subfamily B member 2): #1 1.28
L3HYPDH (trans-L-3-hydroxyproline dehydratase): #1 1.03
ZC3H6 (zinc finger CCCH-type containing 6): #1 0.79
NKAPD1 (NKAP domain containing 1): #1 1.14
LRMDA (leucine rich melanocyte differentiation associated): #1 1.12
POGLUT2 (protein O-glucosyltransferase 2): #1 0.92
ZNF267 (zinc finger protein 267): #1 1.02
ARSF (arylsulfatase F): #1 1.09
GAL3ST4 (galactose-3-O-sulfotransferase 4): #1 0.8
ISG15 (ISG15 ubiquitin like modifier): #1 0.78
BEX1 (brain expressed X-linked 1): #1 0.99
ANGPTL8 (angiopoietin like 8): #1 0.89
TNIP3 (TNFAIP3 interacting protein 3): #1 0.9
NPY1R (neuropeptide Y receptor Y1): #1 0.58
FAM91A1 (family with sequence similarity 91 member A1): #1 0.79
